For at least one entry, the source does not settle the construct or the ends of the probe. For part of these data: Negatives hold for the conditions tested. For part of these data: Weaker means in comparison with the reference protein, sequence or condition of that experiment. For part of these data: At least one verdict rests on a figure or table, not on a statement of the authors.
Assays:
[1] = target: Hfq wt (Escherichia coli) (UniProt P0A6X3); test: filter binding
[2] = target: Hfq K56A (proximal face) (Escherichia coli) (UniProt P0A6X3); test: filter binding
[3] = target: Hfq wt (Escherichia coli) (UniProt P0A6X3); test: competition with a labelled probe; conditions: did not displace 32P-A27 (distal face only, GcvB binds Hfq otherwise)
[4] = target: Hfq Y25D (distal face) (Escherichia coli) (UniProt P0A6X3); test: filter binding; conditions: markedly impaired vs wt Hfq

Q: Does AAAAAAAAAAAAAAAAAAAAAAAAAAA [A27] bind ([1]; labeled distal-face probe in competition)?
A: binds

Q: Does “GACUUCCUGAGCCGGAACGAAAAGUUUUAUCGGAAUGCGUGUUCUGGUGAACUUUUGGCUUACGGUUGUGAUGUUGUGUUGUUGUGUUUGCAAUUGGUCUGCGAUUCAGACCAUGGUAGCAAAGCUACCUUUUUUCACUUCCUGUACAUUUACCCUGUCUGUCCAUAGUGAUUAAUGUAGCACCGCCUAAUUGCGGUGCUUUUUUU [GcvB]” bind ([2]; mutation detrimental for binding)?
A: binds more weakly

Q: Does “GACUUCCUGAGCCGGAACGAAAAGUUUUAUCGGAAUGCGUGUUCUGGUGAACUUUUGGCUUACGGUUGUGAUGUUGUGUUGUUGUGUUUGCAAUUGGUCUGCGAUUCAGACCAUGGUAGCAAAGCUACCUUUUUUCACUUCCUGUACAUUUACCCUGUCUGUCCAUAGUGAUUAAUGUAGCACCGCCUAAUUGCGGUGCUUUUUUU [GcvB]” bind [3]?
A: no binding

Q: Does “GGCCCGGAUGGUGGAAUCGGUAGACACAAGGGAUUUAAAAUCCCUCGGCGUUCGCGCUGUGCGGGUUCAAGUCCCGCUCCGGGUACCAUGGGAAAGAUAAGAAUAAAAUCAAAGCAAUAAGCAGUGUCGUGAAACCACCUUCGGGUGGUUUU [3'ETSleuZ-U4]” bind [4]?
A: binds more weakly

Q: Does “GGCCCGGAUGGUGGAAUCGGUAGACACAAGGGAUUUAAAAUCCCUCGGCGUUCGCGCUGUGCGGGUUCAAGUCCCGCUCCGGGUACCAUGGGAAAGAUAAGAAUAAAAUCAAAGCAAUAAGCAGUGUCGUGAAACCACCUUCGGGUGGUUUUUUU [3'ETSleuZ]” bind ([2]; significantly weaker than wt)?
A: binds more weakly

Q: Does UUUUUUUUUUUUUUUUUU [U18] bind ([1]; labeled proximal-face probe in competition)?
A: binds

Reference: doi:10.1101/2021.04.25.441314
